Record: PubChem BioAssay AID686938 (Drosophila RNAi Screening Center, 2013)

Assay: 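Knock-downs reducing store-operated calcium influx in Drosophila cells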 (primary screen)
System: Drosophila S2R+ cells
Knock-down reagent: long dsRNA against Drosophila genes, about 0.25 µg dsRNA per well, roughly 10,000 cells
Duration: 5 days of knock-down before the calcium assay
Treatment: thapsigargin (SERCA pump blocker) to empty calcium stores; entry signal taken 4 min after adding it
Detection: 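Per-well fluo-4 fluorescence in two replicates, unnormalised, measured in resting cells and 4 min after store depletion by the SERCA blocker thapsigargin; ratio of the two present in few wells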
Reading the numbers: calcium entry signal: higher = stronger calcium signal after store depletion; entry to resting ratio: higher = more calcium entry relative to resting level; resting calcium signal: higher = higher resting calcium signal
Active means: 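Hit if the duplicate-averaged plate z-score for entry over resting signal is under −3; wells with weak total dye signal (Fmax z < −2) or more than 5 off-targets removed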
Meaning of the calls: active = strongly reduced calcium entry; inactive = no strong reduction
In all, the deposit lists about 23,000 reagents; this is an unselected part of those that have a named target and a result. Over the whole deposit, 75 (0.33%) were called active. 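Raw plate signals without normalisation; calls rest on plate z-scores that were not deposited; ratio present for only 364 wells.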 A number with no mark means an inactive call. Names joined by + are all predicted targets of the reagent. The record does not give: the dose of the treatment.

| gene | dsRNA | calcium entry signal, replicate 1 (fluorescence units) | calcium entry signal, replicate 2 (fluorescence units) | entry to resting ratio | resting calcium signal, replicate 1 (fluorescence units) | resting calcium signal, replicate 2 (fluorescence units) |
| --- | --- | --- | --- | --- | --- | --- |
| Prp8 (pre-mRNA processing factor 8) | DRSC07293 | 2.41e7 | 2.30e7 | – | 1.62e7 | 1.47e7 |
| CG43117 | DRSC13767 | 3.71e7 | 4.35e7 | – | 1.97e7 | 2.06e7 |
| S1P (Site-1 protease) | DRSC11810 | 3.16e7 | 4.25e7 | – | 1.59e7 | 2.15e7 |
| CG32726 | DRSC17521 | 2.78e7 | 4.00e7 | – | 1.35e7 | 1.72e7 |
| grnd (grindelwald) | DRSC02020 | 5.16e7 | 3.06e7 | – | 2.24e7 | 1.52e7 |
| CG11655 | DRSC19413 | 2.50e7 | 2.86e7 | – | 1.33e7 | 1.33e7 |
| pug (pugilist) | DRSC17036 | 3.67e7 | 4.09e7 | – | 1.83e7 | 2.06e7 |
| LysS (Lysozyme S) | DRSC08677 | 2.76e7 | 2.76e7 | – | 1.42e7 | 1.29e7 |
| Ance-2 | DRSC02539 | 4.17e7 | 3.12e7 | – | 1.91e7 | 1.54e7 |
| pasha (partner of drosha) | DRSC15295 | 2.70e7 | 3.49e7 | – | 1.30e7 | 1.67e7 |
| CG34297 | DRSC12410 | 2.15e7 | 3.78e7 | – | 1.20e7 | 1.70e7 |
| CG11619 | DRSC09849 | 2.00e7 | 3.19e7 | – | 1.04e7 | 1.51e7 |
| CG9662 | DRSC00723 | 2.53e7 | 2.37e7 | – | 1.22e7 | 1.12e7 |
| CG34277 + CG31542 | DRSC21544 | 3.79e7 | 3.70e7 | – | 2.25e7 | 1.78e7 |
| stet (stem cell tumor) | DRSC08246 | 3.41e7 | 4.30e7 | – | 1.87e7 | 2.15e7 |
| stet (stem cell tumor) | DRSC08283 | 3.39e7 | 4.26e7 | – | 1.88e7 | 2.13e7 |
| mRpL48 (mitochondrial ribosomal protein L48) | DRSC00506 | 4.32e7 | 5.82e7 | – | 1.83e7 | 2.25e7 |
| mia (meiosis I arrest) | DRSC12137 | 3.06e7 | 3.71e7 | – | 1.47e7 | 1.67e7 |
| MBD-R2 | DRSC14180 | 2.82e7 | 3.00e7 | – | 1.85e7 | 1.83e7 |
| CG15439 | DRSC00453 | 4.92e7 | 2.38e7 | – | 2.26e7 | 1.24e7 |
| CG15701 | DRSC06572 | 3.74e7 | 3.57e7 | – | 1.66e7 | 1.72e7 |
| galla-2 | DRSC10936 | 2.92e7 | 3.39e7 | – | 1.49e7 | 1.64e7 |
| galla-2 | DRSC21949 | 3.52e7 | 5.76e7 | – | 1.62e7 | 2.97e7 |
| wmd (wing morphogenesis defect) | DRSC04436 | 4.81e7 | – | – | 2.38e7 | – |
| CG31937 | DRSC00514 | 5.11e7 | – | – | 2.64e7 | – |
| CG32271 | DRSC08198 | 3.11e7 | 3.08e7 | – | 1.78e7 | 1.51e7 |
| CG8613 | DRSC07222 | 3.88e7 | 4.52e7 | – | 1.59e7 | 1.97e7 |
| Top3beta (Topoisomerase 3beta) | DRSC18724 | 2.80e7 | 3.15e7 | – | 1.35e7 | 1.38e7 |
| soti (scotti) | DRSC16432 | 2.89e7 | 3.28e7 | – | 1.35e7 | 1.46e7 |
| Hsp26 (Heat shock protein 26) | DRSC11189 | 4.57e7 | 4.04e7 | – | 2.91e7 | 1.68e7 |
| CG15547 | DRSC15085 | 4.44e7 | 6.52e7 | – | 2.26e7 | 2.44e7 |
| CG42288 | DRSC06381 | 3.70e7 | 3.19e7 | – | 1.77e7 | 1.54e7 |
| hiw (highwire) | DRSC20338 | 3.78e7 | 3.22e7 | – | 2.17e7 | 1.62e7 |
| hiw (highwire) | DRSC20339 | 4.02e7 | 3.24e7 | – | 2.05e7 | 1.57e7 |
| CG10931 | DRSC06015 | 3.78e7 | 4.71e7 | – | 1.80e7 | 2.29e7 |
| CG14106 | DRSC10109 | 3.27e7 | 3.66e7 | – | 1.84e7 | 1.70e7 |
| CG32523 | DRSC20510 | 3.02e7 | 3.72e7 | – | 1.74e7 | 1.62e7 |
| CCT4 (Chaperonin containing TCP1 subunit 4) | DRSC02865 | 2.95e7 | 2.02e7 | – | 1.61e7 | 1.09e7 |
| Blm + CG14721 | DRSC14943 | 3.41e7 | 3.62e7 | – | 1.87e7 | 2.03e7 |
| CG7755 | DRSC07040 | 5.38e7 | 5.38e7 | – | 2.11e7 | 2.52e7 |
| CG2147 | DRSC18211 | 2.43e7 | 2.67e7 | – | 1.20e7 | 1.31e7 |
| CG14370 | DRSC14832 | 3.29e7 | 4.65e7 | – | 1.64e7 | 7.45e7 |
| Ugt36D1 (UDP-glycosyltransferase family 36 member D1) | DRSC02600 | 6.31e7 | – | – | 2.92e7 | – |
| Paics (PAICS bifunctional enzyme) | DRSC20305 | 3.76e7 | 4.38e7 | – | 1.84e7 | 1.93e7 |
| CG43090 | DRSC17439 | 3.61e7 | 3.55e7 | – | 1.71e7 | 1.80e7 |
| Rcd6 (Reduction in Cnn dots 6) | DRSC06054 | 3.74e7 | 4.09e7 | – | 1.82e7 | 2.03e7 |
| ArgRS-m (Arginyl-tRNA synthetase, mitochondrial) | DRSC14186 | 4.06e7 | 3.32e7 | – | 1.79e7 | 1.41e7 |
| CG3448 | DRSC10368 | 2.62e7 | 3.67e7 | – | 1.40e7 | 1.59e7 |
| fz3 (frizzled 3) | DRSC18779 | 3.70e7 | 4.84e7 | 2 | 1.87e7 | 1.86e7 |
| scrib (scribble) | DRSC13774 | 3.15e7 | 4.19e7 | – | 1.52e7 | 2.04e7 |
| scrib (scribble) | DRSC13775 | 3.78e7 | 3.90e7 | – | 1.73e7 | 2.15e7 |
| scrib (scribble) | DRSC15809 | 2.64e7 | 3.08e7 | – | 1.21e7 | 1.38e7 |
| scrib (scribble) | DRSC17051 | 2.10e7 | 3.95e7 | – | 1.20e7 | 1.66e7 |
| CG15577 | DRSC18065 | 3.36e7 | 4.58e7 | – | 1.51e7 | 1.99e7 |
| conu (conundrum) | DRSC07810 | 3.58e7 | 2.57e7 | – | 1.74e7 | 1.09e7 |
| AdoR (Adenosine receptor) | DRSC16556 | 2.34e7 | 3.74e7 | – | 1.34e7 | 1.73e7 |
| CG15140 | DRSC02440 | 4.96e7 | 3.28e7 | – | 2.18e7 | 1.65e7 |
| Hr39 (Hormone receptor-like in 39) | DRSC03346 | 3.76e7 | – | – | 1.96e7 | – |
| CG12481 | DRSC19461 | 2.77e7 | 3.59e7 | – | 1.49e7 | 1.47e7 |
| CG34435 | DRSC18086 | 2.37e7 | 3.31e7 | – | 1.22e7 | 1.53e7 |
| CG6788 + CR32496 | DRSC22043 | 3.23e7 | 4.72e7 | – | 1.53e7 | 2.46e7 |
| CG14817 | DRSC18547 | 6.14e7 | 6.19e7 | 2.4 | 2.60e7 | 2.31e7 |
| CG43062 | DRSC12866 | 2.92e7 | 3.53e7 | – | 1.33e7 | 1.59e7 |
| RpL23 (Ribosomal protein L23) | DRSC04648 | 1.59e7 | 1.73e7 | – | 1.19e7 | 1.12e7 |
| CG11379 | DRSC18629 | 5.76e7 | 4.99e7 | 2.2 | 2.59e7 | 1.98e7 |
| Rpn2 (Regulatory particle non-ATPase 2) | DRSC16839 | 1.65e7 (active) | 1.59e7 | – | 1.23e7 | 1.08e7 |
| Ag5r (Antigen 5-related) | DRSC19327 | 2.78e7 | 3.17e7 | – | 1.30e7 | 1.47e7 |
| CG5639 | DRSC15851 | 1.83e7 | 3.17e7 | – | 9.78e6 | 1.37e7 |
| CG31266 | DRSC15747 | 3.85e7 | 3.78e7 | – | 1.80e7 | 5.37e7 |
| Trm7-34 (tRNA methyltransferase 7-34) | DRSC16171 | 3.11e7 | 3.49e7 | – | 7.56e7 | 1.51e7 |
| CG6978 | DRSC18409 | 5.34e7 | 4.06e7 | – | 2.39e7 | 1.77e7 |
| PolA2 (DNA polymerase alpha subunit 2) | DRSC16641 | 3.96e7 | 4.42e7 | – | 2.26e7 | 2.25e7 |
| CG31093 | DRSC15689 | 4.28e7 | 5.50e7 | – | 2.00e7 | 2.46e7 |
| ND-15 (NADH dehydrogenase (ubiquinone) 15 kDa subunit) | DRSC00311 | 3.84e7 | – | – | 1.75e7 | – |
| Col4a1 (Collagen type IV alpha 1) | DRSC03291 | 3.80e7 | – | – | 2.04e7 | – |
